Data as given in PubChem BioAssay AID504786 (Drosophila RNAi Screening Center, 2011)
Purpose: 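Knock-downs reducing HIF reporter induction by the iron chelator DFO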 (primary screen). Cell system: Drosophila S2 cells with a stable HIF luciferase reporter. Knock-down reagent: long dsRNA against Drosophila genes, about 0.2 µg dsRNA per well of a 384-well plate. Timing: three days of knock-down, then 20 h of DFO before reading. Treatment: desferrioxamine (DFO) at 100 µM, an iron chelator that mimics hypoxia, for 20 h. Read-out: 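HIF reporter luminescence in cells given 100 µM DFO for 20 h, using the mouse ldh-a hypoxia-response element, scored as per-plate z-scores; higher means greater loss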. Scale: z-score: higher = stronger loss of HIF reporter signal.
The deposit covers about 21,000 reagents; this is an unselected part of those with a known target gene and a result. 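Primary screen; positive scores mean lost reporter signal, so the sign may be inverted from the usual convention.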 A plus sign joins genes that one reagent is predicted to hit. Not all columns of the deposit are shown. Reagent sequences are not shown.

z-score, replicate 1, by target gene and reagent
CG13159: DRSC06283 -0.2
Lgr4: DRSC18969 0; DRSC18970 -0.3; DRSC19884 -0.2
MED1: DRSC11808 -0.1
mAChR-B: DRSC16345 5.9
CG5854: DRSC15894 0.1
Obp19a: DRSC20487 -0.1
RpS14b: DRSC18711 8.5
CG13310: DRSC09981 -0.3
aay: DRSC11320 -0.3
CG12713: DRSC09900 -0.2
CG33143: DRSC04151 -0.4; DRSC04454 -0.1
CG34435: DRSC18086 -0.2
tsh: DRSC03740 -0.2
Cht7 + tRNA:Cys-GCA-1-4 + tRNA:Lys-CTT-1-13: DRSC08021 0.3
l(3)72Dr: DRSC10478 -0.3
Pgm2b: DRSC05978 -0.3
PTPMT1: DRSC14235 -0.1
CG8679: DRSC03109 -0.3
bsd: DRSC05953 1
CG5539: DRSC04510 -0.3
CG4945: DRSC06904 -0.3
Osi13: DRSC12281 -0.1
CG7492: DRSC10855 -0.3
Smox: DRSC18716 -0.3
CG9030: DRSC20139 -0.3
Afg3l2: DRSC10657 -0.2
Cbp53E: DRSC07356 -0.3
CG14034: DRSC02359 -0.2
CG9084: DRSC07335 0
Chsy: DRSC20175 -0.5; DRSC20176 -0.3
